At least one structure is not confirmed: it was looked up by name or label, or the drawing left a doubt.
Settings: O/W emulsion, menhaden oil/Smart Blend Omega oil 1:1 (0.5% w/w), entrapped within β-lactoglobulin microcarriers; 28 days of storage at 30° C.

CC/C=C\C/C=C\C/C=C\C/C=C\C/C=C\CCCC(=O)O [EPA, eicosapentaenoic acid]
percentage of retained ω-3 fatty acid: 61.8%

From patent publication US20150216779A1, “COMPOSITIONS FOR TARGETED ANTI-AGING THERAPY” (THE TEXAS A&M UNIVERSITY SYSTEM, priority 2012, published 2015)
